Results deposited as PubChem BioAssay AID1259254 (NCATS, 2017)
Shown is a random part of about 59,000 reagents. Over the whole deposit, about 1,550 (2.6%) were called active. 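G2 share is only a proxy for re-replication; each gene was hit by three separate siRNAs, and active genes were retested.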 The numbers tell different reagents against one gene apart. Not all columns of the deposit are shown. The record does not give: the amount of reagent.

- Aim: 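Gene knock-downs that lead to re-replication, shown by excess G2 DNA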 (primary screen)
- System: human HCT116 colorectal cancer cells
- Reagent: single siRNA against human genes
- Time to read-out: 3 days
- Measured: 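Imaged Hoechst DNA stain sorts each cell into a cycle phase by DNA amount; per plate, G2 fraction set to 0% for non-targeting and 100% for GMNN siRNA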
- Direction: G2 robust z-score and G2 cells, % of GMNN control: higher = more G2 cells, more excess DNA replication
- Active means: 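Active siRNAs have a G2 robust z of 5 or more median absolute deviations over the median, which in these data means about 38% or higher of GMNN control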

AEBP1 (GeneID 165) #1 | G2 robust z-score = 0.193; G2 cells, % of GMNN control = 4.32; Call = inactive
AEBP1 (GeneID 165) #2 | G2 robust z-score = 0.496; G2 cells, % of GMNN control = 6.46; Call = inactive
AEBP1 (GeneID 165) #3 | G2 robust z-score = -0.273; G2 cells, % of GMNN control = 1.05; Call = inactive
APH1A (GeneID 51107) #1 | G2 robust z-score = 0.758; G2 cells, % of GMNN control = 8.3; Call = inactive
APH1A (GeneID 51107) #2 | G2 robust z-score = 3.14; G2 cells, % of GMNN control = 25.1; Call = inactive
APH1A (GeneID 51107) #3 | G2 robust z-score = 0.301; G2 cells, % of GMNN control = 5.08; Call = inactive
MS4A8 (GeneID 83661) #1 | G2 robust z-score = -0.944; G2 cells, % of GMNN control = -3.67; Call = inactive
MS4A8 (GeneID 83661) #2 | G2 robust z-score = -1.23; G2 cells, % of GMNN control = -5.68; Call = inactive
MS4A8 (GeneID 83661) #3 | G2 robust z-score = 1.96; G2 cells, % of GMNN control = 16.7; Call = inactive
ZNF436 (GeneID 80818) #1 | G2 robust z-score = -0.665; G2 cells, % of GMNN control = -1.71; Call = inactive
ZNF436 (GeneID 80818) #2 | G2 robust z-score = -0.818; G2 cells, % of GMNN control = -2.79; Call = inactive
ZNF436 (GeneID 80818) #3 | G2 robust z-score = 0.282; G2 cells, % of GMNN control = 4.95; Call = inactive
THBS4 (GeneID 7060) #1 | G2 robust z-score = -1.18; G2 cells, % of GMNN control = -5.36; Call = inactive
THBS4 (GeneID 7060) #2 | G2 robust z-score = 1.38; G2 cells, % of GMNN control = 12.7; Call = inactive
THBS4 (GeneID 7060) #3 | G2 robust z-score = 1.35; G2 cells, % of GMNN control = 12.4; Call = inactive
ZEB2 (GeneID 9839) #1 | G2 robust z-score = -0.84; G2 cells, % of GMNN control = -2.94; Call = inactive
ZEB2 (GeneID 9839) #2 | G2 robust z-score = 1.41; G2 cells, % of GMNN control = 12.9; Call = inactive
ZEB2 (GeneID 9839) #3 | G2 robust z-score = -0.197; G2 cells, % of GMNN control = 1.58; Call = inactive
TAOK2 (GeneID 9344) #1 | G2 robust z-score = -0.581; G2 cells, % of GMNN control = -1.12; Call = inactive
TAOK2 (GeneID 9344) #2 | G2 robust z-score = 2.02; G2 cells, % of GMNN control = 17.2; Call = inactive
TAOK2 (GeneID 9344) #3 | G2 robust z-score = -0.533; G2 cells, % of GMNN control = -0.785; Call = inactive
DMAC2L (GeneID 27109) #1 | G2 robust z-score = 3.37; G2 cells, % of GMNN control = 26.7; Call = inactive
DMAC2L (GeneID 27109) #2 | G2 robust z-score = 0.757; G2 cells, % of GMNN control = 8.3; Call = inactive
DMAC2L (GeneID 27109) #3 | G2 robust z-score = -0.539; G2 cells, % of GMNN control = -0.826; Call = inactive
TTC34 (GeneID 100287898) #1 | G2 robust z-score = -0.153; G2 cells, % of GMNN control = 1.89; Call = inactive
TTC34 (GeneID 100287898) #2 | G2 robust z-score = -0.217; G2 cells, % of GMNN control = 1.44; Call = inactive
TTC34 (GeneID 100287898) #3 | G2 robust z-score = -0.471; G2 cells, % of GMNN control = -0.346; Call = inactive
TTC34 (GeneID 100287898) #4 | G2 robust z-score = -0.632; G2 cells, % of GMNN control = -1.48; Call = inactive
TTC34 (GeneID 100287898) #5 | G2 robust z-score = -0.326; G2 cells, % of GMNN control = 0.672; Call = inactive
TTC34 (GeneID 100287898) #6 | G2 robust z-score = 2.26; G2 cells, % of GMNN control = 18.8; Call = inactive

Reformatted: results already given
gene symbol	reagent	G2 robust z-score	G2 cells, % of GMNN control	Call
TAOK2 (GeneID 9344)	1	-0.581	-1.12	inactive
TAOK2 (GeneID 9344)	2	2.02	17.2	inactive
TAOK2 (GeneID 9344)	3	-0.533	-0.785	inactive
DMAC2L (GeneID 27109)	1	3.37	26.7	inactive
DMAC2L (GeneID 27109)	2	0.757	8.3	inactive
